Reference: paper PMC3197629
For at least one entry, the source does not settle the construct or the ends of the probe. Weaker means in comparison with the reference protein, sequence or condition of that experiment.

System: GST-NFATc1
Assay: EMSA
Conditions: eliminated by 50-fold unlabeled probe, LightShift Chemiluminescent EMSA kit per manufacturer, 0.5% BSA with desalted GST-NFAT, pH and temperature not stated, recombinant protein, protein details: GST, label: 3' biotin on both strands

Sequence | binding result (stronger band than 197G (densitometry, P<0.01)) | binding result (less intense band than 197A (densitometry, P<0.01))
CATTTTCCTTCAGAAGAAGAGATTCTTCTA (double strand) [IL-17 197A probe] | binds | –
CATTTTCCTTCAGAAGGAGAGATTCTTCTA (double strand) [IL-17 197G probe] | – | binds more weakly
